No constants are given. Whether binding was seen depends on the method and setting. Binding seen in cells or lysates may run through a third protein. Some results given as binding are weak or reduced against the parent protein; the word gives no strength. Tags and fused reporters may be left off the sequences shown.
Target: T1, Cue3, epitope-tagged (S. cerevisiae) (UniProt P53137)
T1 sequence: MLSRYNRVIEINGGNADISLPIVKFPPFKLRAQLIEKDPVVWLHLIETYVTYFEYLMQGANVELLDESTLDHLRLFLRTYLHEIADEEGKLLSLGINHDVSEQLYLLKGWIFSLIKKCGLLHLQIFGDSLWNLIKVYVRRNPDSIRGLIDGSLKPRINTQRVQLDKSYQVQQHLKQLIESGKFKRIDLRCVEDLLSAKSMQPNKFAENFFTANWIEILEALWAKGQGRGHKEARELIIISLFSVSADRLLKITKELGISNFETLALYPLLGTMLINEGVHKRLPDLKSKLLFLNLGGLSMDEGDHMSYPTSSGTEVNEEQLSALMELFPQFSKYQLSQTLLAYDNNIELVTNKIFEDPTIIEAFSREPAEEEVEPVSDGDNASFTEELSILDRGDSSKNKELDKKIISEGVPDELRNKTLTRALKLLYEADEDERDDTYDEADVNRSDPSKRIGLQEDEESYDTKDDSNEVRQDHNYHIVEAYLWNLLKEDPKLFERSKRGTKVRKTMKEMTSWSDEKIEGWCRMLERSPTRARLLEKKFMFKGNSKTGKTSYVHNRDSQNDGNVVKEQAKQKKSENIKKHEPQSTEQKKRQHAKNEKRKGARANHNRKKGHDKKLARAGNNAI
Experiment: co-IP; IPs from cryo-ground yeast extract on Anti-FLAG M2 Affinity Resin, 1 h, 4°C, IP buffer (20 mM HEPES K pH 7.4, 100 mM KOAc, 10 mM MgCl2); detected by immunoblot (anti-HA, anti-Flag)

binding: binds
B1: Ykr023w, epitope-tagged (protein, UniProt P36119 1-530)
chain: MTRKQAIDYAIKQVPQILPLEESDVKALCEQVLSTSSDDPEQIASKFLEFLGHEDLSFEFVMKFNELLNQNDKKEEKKTKNVHLEHTAPTSWKNESKQPTNNYINKKGDEKPKKLKDEKKSSTTRPTVQPSNQSTQSNPIKEKKEHRSKGKLQSLQEIDEAIKMLELRDSGSSKNCNCQGTRHPVFDIAPNCLHCGKVVCVIEGLNKGKCGHCHEQLISDNERTQMVEILNQEKNELNGSSSSLSNASNGANVPKKKTKTYKITSGMGKNLFAEQDKLFDFIERKRERERKRNEVLKLQEEKEESEAKERQASEHDHKAEENPELLAAQERLDRLLYFQDTSAERTKIIDNASDFDMNQEVGLWGSARERALALKKQQRNLRKWEKVEKERNGRREKYVVSMNIGSNGKVTMTEVPKDTENVIAGSDDDISDISDEEDISDLKHIHALKSEINTTKSLENLHLQSKAWDYERDKKQFDRPTYVKKNSDTAQQNRKTEEKAHDMQAYDLKSRVQVDQNADASVEQNILAVL
